Test results taken from paper PMC11432330, “Novel Drug-like HsrA Inhibitors Exhibit Potent Narrow-Spectrum Antimicrobial Activities against Helicobacter pylori” (International Journal of Molecular Sciences, 2024).
This continues a long series; more values of the same kind are listed elsewhere.

Tested on: H. pylori 26695
Assay: In vivo inhibition of HsrA: RNA-Seq transcriptomic analysis of exposed cells
Type: cell-based, Helicobacter pylori
Protocol: Bacterial growth from three blood agar plates of H. pylori ATCC 700392 (aka 26695) incubated for 48 h at 37 °C under microaerobic conditions was aseptically resuspended in BHI + FBS and adjusted to 10^7 CFU/mL. BHI broth cultures were incubated microaerobically at 37 °C for 24 h. […] At this time, bacterial growth was stopped by adding 1.5 mL ice-cold RNA stop solution (95% absolute ethanol, 5% acid-buffered phenol) and subsequently incubated on ice. Control samples were exposed to the same amount of DMSO instead of the inhibitor. Helicobacter cells from all samples were harvested by centrifugation (4000 rpm at 4 °C for 10 min), then the pellets were quickly frozen by immersion in liquid nitrogen and stored at −80 °C.
RNA-Seq analysis was performed by GENEWIZ (Azenta Life Sciences, Leipzig, Germany). Frozen cell pellets from two biological replicates of each treatment condition were properly submitted to GENEWIZ in dry ice. RNA-Seq libraries were prepared according to standard protocols via rRNA depletion, RNA fragmentation and random priming, reverse transcription, 5’-phosphorylation and dA-tailing of cDNAs, adaptor ligation, and PCR enrichment. Once the quality of each library was confirmed, they were sequenced on an Illumina NovaSeq 6000 (Illumina, San Diego, CA, USA) with 150-bp paired-ends. Raw sequence reads were filtered to remove possible adapter sequences and nucleotides with poor quality using Trimmomatic v.0.36 [105]. The trimmed reads were subsequently mapped to the H. pylori strain 26695 reference genome NC_000915.1 available on NCBI, by using the Bowtie2 aligner v.2.2.6 [106]. Unique gene hit counts were calculated by using featureCounts from the Subread package v.1.5.2. Only unique reads that fell within the gene regions were counted. Using DESeq2 [108], a comparison of the gene expression between the control and treated groups of samples was performed. The Wald test was used to generate p-values and log2 fold changes. Genes with an adjusted p-value < 0.05 and absolute log2 fold change >1 were considered as differentially expressed genes (DEGs) for each comparison. The RNA-Seq data generated in this study have been deposited in ArrayExpress with the accession number E-MTAB-14255.

## NC(=NOC(=O)Nc1ccc(Cl)cc1)c1csc([N+](=O)[O-])c1 [Ligand V, N′-{[(4-chloroanilino)carbonyl]}oxy-5-nitrothiophene-3-carboximidamide]
Gene HP0498, exposed to lethal concentration of V vs control
  log2 Fold Change: -0.924
Gene HP0499, exposed to lethal concentration of V vs control
  log2 Fold Change: -0.948
Gene HP0506, exposed to lethal concentration of V vs control
  log2 Fold Change: -1.603
Gene HP0507, exposed to lethal concentrations vs control
  log2 Fold Change: -0.762
Gene HP0508, exposed to lethal concentration of V vs control
  log2 Fold Change: -1.161
Gene HP0509, exposed to lethal concentrations vs control
  log2 Fold Change: 0.101
Gene HP0510, exposed to lethal concentrations vs control
  log2 Fold Change: 1.452
Gene HP0511, exposed to lethal concentrations of V vs control
  log2 Fold Change: 0.491
Gene HP0512, exposed to lethal concentrations vs control
  log2 Fold Change: 0.089
Gene HP0520, exposed to lethal concentrations vs control
  log2 Fold Change: 1.569
Gene HP0522, exposed to lethal concentration of V vs control
  log2 Fold Change: -0.888
Gene HP0523, exposed to lethal concentration of V vs control
  log2 Fold Change: -1.071
Gene HP0524, exposed to lethal concentrations vs control
  log2 Fold Change: -0.699
Gene HP0526, exposed to lethal concentration of V vs control
  log2 Fold Change: -1.128
Gene HP0527, exposed to lethal concentrations vs control
  log2 Fold Change: -0.822
Gene HP0528, exposed to lethal concentrations of V vs control
  log2 Fold Change: 0.539
Gene HP0529, exposed to lethal concentration of V vs control
  log2 Fold Change: -0.987
Gene HP0530, exposed to lethal concentrations vs control
  log2 Fold Change: -0.777
Gene HP0531, exposed to lethal concentrations vs control
  log2 Fold Change: -0.014
Gene HP0532, exposed to lethal concentrations of V vs control
  log2 Fold Change: 0.758
Gene HP0535, exposed to lethal concentrations vs control
  log2 Fold Change: -0.063
Gene HP0538, exposed to lethal concentrations vs control
  log2 Fold Change: -0.871
Gene HP0541, exposed to lethal concentrations vs control
  log2 Fold Change: 1.263
Gene HP0542, exposed to lethal concentrations vs control
  log2 Fold Change: 1.038
Gene HP0544, exposed to lethal concentration of V vs control
  log2 Fold Change: -1.327
Gene HP0545, exposed to lethal concentrations vs control
  log2 Fold Change: 0.068
Gene HP0546a, exposed to lethal concentration of V vs control
  log2 Fold Change: -1.590
Gene HP0547, exposed to lethal concentrations vs control
  log2 Fold Change: 1.917
Gene HP0549, exposed to lethal concentrations vs control
  log2 Fold Change: -0.825
Gene HP0552, exposed to lethal concentrations vs control
  log2 Fold Change: -0.792
Gene HP0553, exposed to lethal concentration of V vs control
  log2 Fold Change: -1.109
Gene HP0554, exposed to lethal concentration of V vs control
  log2 Fold Change: -1.186
Gene HP0556, exposed to lethal concentrations vs control
  log2 Fold Change: 1.197
Gene HP0557, exposed to lethal concentration of V vs control
  log2 Fold Change: -1.409
Gene HP0558, exposed to lethal concentrations vs control
  log2 Fold Change: -0.745
Gene HP0565, exposed to lethal concentrations of V vs control
  log2 Fold Change: 0.966
Gene HP0567, exposed to lethal concentration of V vs control
  log2 Fold Change: -0.892
Gene HP0570, exposed to lethal concentrations vs control
  log2 Fold Change: 1.868
Gene HP0571, exposed to lethal concentrations of V vs control
  log2 Fold Change: 0.760
Gene HP0572, exposed to lethal concentrations vs control
  log2 Fold Change: -0.097
Gene HP0573, exposed to lethal concentrations vs control
  log2 Fold Change: 1.742
Gene HP0574, exposed to lethal concentration of V vs control
  log2 Fold Change: -2.035
Gene HP0575, exposed to lethal concentration of V vs control
  log2 Fold Change: -1.066
Gene HP0577, exposed to lethal concentrations vs control
  log2 Fold Change: 0.069
Gene HP0578, exposed to lethal concentrations vs control
  log2 Fold Change: -0.657
Gene HP0579, exposed to lethal concentrations vs control
  log2 Fold Change: -0.671
Gene HP0580, exposed to lethal concentrations vs control
  log2 Fold Change: -0.090
Gene HP0581, exposed to lethal concentration of V vs control
  log2 Fold Change: -0.956
Gene HP0582, exposed to lethal concentration of V vs control
  log2 Fold Change: -1.418
Gene HP0584, exposed to lethal concentrations of V vs control
  log2 Fold Change: 0.923
Gene HP0585, exposed to lethal concentrations vs control
  log2 Fold Change: -0.015
Gene HP0585a, exposed to lethal concentrations vs control
  log2 Fold Change: -0.037
Gene HP0592, exposed to lethal concentration of V vs control
  log2 Fold Change: -1.785
Gene HP0594, exposed to lethal concentration of V vs control
  log2 Fold Change: -0.908
Gene HP0595, exposed to lethal concentrations vs control
  log2 Fold Change: -0.101
Gene HP0597, exposed to lethal concentrations of V vs control
  log2 Fold Change: 0.579
Gene HP0598, exposed to lethal concentrations vs control
  log2 Fold Change: -0.833
Gene HP0599, exposed to lethal concentrations vs control
  log2 Fold Change: 0.090
Gene HP0601, exposed to lethal concentrations vs control
  log2 Fold Change: 1.109
Gene HP0603, exposed to lethal concentrations of V vs control
  log2 Fold Change: 0.622
Gene HP0605, exposed to lethal concentrations vs control
  log2 Fold Change: -0.075
Gene HP0606, exposed to lethal concentration of V vs control
  log2 Fold Change: -0.895
Gene HP0614, exposed to lethal concentrations of V vs control
  log2 Fold Change: 0.720
Gene HP0620, exposed to lethal concentration of V vs control
  log2 Fold Change: -0.897
Gene HP0621, exposed to lethal concentrations vs control
  log2 Fold Change: -0.863
Gene HP0622, exposed to lethal concentration of V vs control
  log2 Fold Change: -1.153
Gene HP0624, exposed to lethal concentrations vs control
  log2 Fold Change: -0.767
Gene HP0626, exposed to lethal concentrations vs control
  log2 Fold Change: 1.393
Gene HP0629, exposed to lethal concentrations vs control
  log2 Fold Change: 1.236
Gene HP0630, exposed to lethal concentrations vs control
  log2 Fold Change: -0.625
Gene HP0631, exposed to lethal concentrations vs control
  log2 Fold Change: 2.021
Gene HP0632, exposed to lethal concentrations vs control
  log2 Fold Change: 1.870
Gene HP0633, exposed to lethal concentrations vs control
  log2 Fold Change: 1.625
Gene HP0634, exposed to lethal concentrations of V vs control
  log2 Fold Change: 0.504
Gene HP0635, exposed to lethal concentrations vs control
  log2 Fold Change: -0.739
Gene HP0637, exposed to lethal concentration of V vs control
  log2 Fold Change: -1.649
Gene HP0638, exposed to lethal concentrations vs control
  log2 Fold Change: 0.080
Gene HP0644, exposed to lethal concentrations vs control
  log2 Fold Change: -0.793
Gene HP0645, exposed to lethal concentration of V vs control
  log2 Fold Change: -1.748
Gene HP0646, exposed to lethal concentrations vs control
  log2 Fold Change: -0.862
Gene HP0653, exposed to lethal concentrations vs control
  log2 Fold Change: 2.242
Gene HP0654, exposed to lethal concentrations of V vs control
  log2 Fold Change: 0.826
Gene HP0656, exposed to lethal concentrations vs control
  log2 Fold Change: -0.824
Gene HP0657, exposed to lethal concentrations vs control
  log2 Fold Change: -0.772
Gene HP0663, exposed to lethal concentrations vs control
  log2 Fold Change: 1.111
Gene HP0664, exposed to lethal concentrations vs control
  log2 Fold Change: 0.136
Gene HP0665, exposed to lethal concentrations of V vs control
  log2 Fold Change: 0.535
Gene HP0666, exposed to lethal concentrations vs control
  log2 Fold Change: -0.109
Gene HP0672, exposed to lethal concentrations vs control
  log2 Fold Change: -0.133
Gene HP0675, exposed to lethal concentrations vs control
  log2 Fold Change: 0.086
Gene HP0677, exposed to lethal concentrations vs control
  log2 Fold Change: -0.113
Gene HP0681, exposed to lethal concentrations vs control
  log2 Fold Change: 1.111
Gene HP0682, exposed to lethal concentrations vs control
  log2 Fold Change: 1.136
Gene HP0686, exposed to lethal concentrations vs control
  log2 Fold Change: 1.023
Gene HP0687, exposed to lethal concentration of V vs control
  log2 Fold Change: -1.311
Gene HP0690, exposed to lethal concentrations vs control
  log2 Fold Change: 1.169
Gene HP0691, exposed to lethal concentrations vs control
  log2 Fold Change: 1.485
Gene HP0693, exposed to lethal concentrations vs control
  log2 Fold Change: 1.154
Gene HP0695, exposed to lethal concentrations vs control
  log2 Fold Change: 2.310
Gene HP0696, exposed to lethal concentrations vs control
  log2 Fold Change: 2.297
Gene HP0697, exposed to lethal concentrations vs control
  log2 Fold Change: 1.780
Gene HP0700, exposed to lethal concentration of V vs control
  log2 Fold Change: -1.131
Gene HP0701, exposed to lethal concentrations vs control
  log2 Fold Change: 0.074
Gene HP0703, exposed to lethal concentration of V vs control
  log2 Fold Change: -0.991
Gene HP0708, exposed to lethal concentrations vs control
  log2 Fold Change: 0.027
Gene HP0710, exposed to lethal concentrations vs control
  log2 Fold Change: 1.144
Gene HP0711, exposed to lethal concentrations of V vs control
  log2 Fold Change: 0.561
Gene HP0714, exposed to lethal concentrations vs control
  log2 Fold Change: 1.040
Gene HP0715, exposed to lethal concentrations vs control
  log2 Fold Change: 1.758
Gene HP0716, exposed to lethal concentrations of V vs control
  log2 Fold Change: 0.879
Gene HP0717, exposed to lethal concentrations of V vs control
  log2 Fold Change: 0.698
Gene HP0718, exposed to lethal concentrations vs control
  log2 Fold Change: -0.082
Gene HP0721, exposed to lethal concentration of V vs control
  log2 Fold Change: -0.904
Gene HP0723, exposed to lethal concentrations vs control
  log2 Fold Change: 1.622
Gene HP0724, exposed to lethal concentrations vs control
  log2 Fold Change: 1.088
Gene HP0727, exposed to lethal concentrations vs control
  log2 Fold Change: -0.083
Gene HP0728, exposed to lethal concentrations vs control
  log2 Fold Change: -0.686
Gene HP0729, exposed to lethal concentrations vs control
  log2 Fold Change: 1.192
Gene HP0730, exposed to lethal concentrations vs control
  log2 Fold Change: 1.444
